{"source": "PubChem BioAssay AID1259405 (NCATS, 2018)", "aim": "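Mouse-designed siRNAs used to find CHO productivity engineering targets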 (primary screen)", "system": "Chinese hamster CHO-K1 ovary cells with stable secreted eGFP expression", "reagent": "single siRNA against mouse genes, 0.8 pmol siRNA per well (2 µl of 400 nM stock)", "duration": "3 days", "detection": "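Percent of the per-plate non-targeting control median for intracellular GFP per well by laser scanning cytometry and for cell viability by ATP luminescence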", "direction": "GFP, % of control: higher = more GFP per well, higher productivity; viability (ATP), % of control: higher = more viable cells (more ATP)", "active means": "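Called active when intracellular GFP, relative to negative control, is at or above 120%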", "note": "Shown is a random part of about 50,000 reagents tested. In the full data, about 4,000 (8%) got an active call. 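Mouse siRNA library applied to hamster cells; one well for each siRNA.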 The numbers tell different reagents against one gene apart."}
{"gene knocked down":"Hspa14 (GeneID 50497)","siRNA no.":1,"GFP, % of control":79,"viability (ATP), % of control":73.7,"activity call":"inactive"}
{"gene knocked down":"Hspa14 (GeneID 50497)","siRNA no.":2,"GFP, % of control":77.5,"viability (ATP), % of control":68.8,"activity call":"inactive"}
{"gene knocked down":"Hspa14 (GeneID 50497)","siRNA no.":3,"GFP, % of control":59.8,"viability (ATP), % of control":59.2,"activity call":"inactive"}
{"gene knocked down":"Phb1 (GeneID 18673)","siRNA no.":1,"GFP, % of control":59.8,"viability (ATP), % of control":60.3,"activity call":"inactive"}
{"gene knocked down":"Phb1 (GeneID 18673)","siRNA no.":2,"GFP, % of control":59.4,"viability (ATP), % of control":25.8,"activity call":"inactive"}
{"gene knocked down":"Phb1 (GeneID 18673)","siRNA no.":3,"GFP, % of control":102,"viability (ATP), % of control":158,"activity call":"inactive"}
{"gene knocked down":"Stx19 (GeneID 68159)","siRNA no.":1,"GFP, % of control":25.8,"viability (ATP), % of control":23.4,"activity call":"inactive"}
{"gene knocked down":"Stx19 (GeneID 68159)","siRNA no.":2,"GFP, % of control":43,"viability (ATP), % of control":58.1,"activity call":"inactive"}
{"gene knocked down":"Stx19 (GeneID 68159)","siRNA no.":3,"GFP, % of control":45.3,"viability (ATP), % of control":28.5,"activity call":"inactive"}
{"gene knocked down":"Nr2f2 (GeneID 11819)","siRNA no.":1,"GFP, % of control":65.2,"viability (ATP), % of control":96.2,"activity call":"inactive"}
{"gene knocked down":"Nr2f2 (GeneID 11819)","siRNA no.":2,"GFP, % of control":112,"viability (ATP), % of control":97,"activity call":"inactive"}
{"gene knocked down":"Ankrd69 (GeneID 70952)","siRNA no.":1,"GFP, % of control":54.6,"viability (ATP), % of control":29.6,"activity call":"inactive"}
{"gene knocked down":"Ankrd69 (GeneID 70952)","siRNA no.":2,"GFP, % of control":91.1,"viability (ATP), % of control":46,"activity call":"inactive"}
{"gene knocked down":"Ankrd69 (GeneID 70952)","siRNA no.":3,"GFP, % of control":81.2,"viability (ATP), % of control":89.3,"activity call":"inactive"}
{"gene knocked down":"Farsa (GeneID 66590)","siRNA no.":1,"GFP, % of control":103,"viability (ATP), % of control":79.3,"activity call":"inactive"}
{"gene knocked down":"Farsa (GeneID 66590)","siRNA no.":2,"GFP, % of control":105,"viability (ATP), % of control":85.2,"activity call":"inactive"}
{"gene knocked down":"Psmg2 (GeneID 107047)","siRNA no.":1,"GFP, % of control":81.6,"viability (ATP), % of control":98.1,"activity call":"inactive"}
{"gene knocked down":"Psmg2 (GeneID 107047)","siRNA no.":2,"GFP, % of control":103,"viability (ATP), % of control":96.3,"activity call":"inactive"}
{"gene knocked down":"Psmg2 (GeneID 107047)","siRNA no.":3,"GFP, % of control":141,"viability (ATP), % of control":111,"activity call":"active"}
{"gene knocked down":"Ttc39b (GeneID 69863)","siRNA no.":1,"GFP, % of control":99.4,"viability (ATP), % of control":102,"activity call":"inactive"}
{"gene knocked down":"Ttc39b (GeneID 69863)","siRNA no.":2,"GFP, % of control":111,"viability (ATP), % of control":62.3,"activity call":"inactive"}
{"gene knocked down":"Ttc39b (GeneID 69863)","siRNA no.":3,"GFP, % of control":52.6,"viability (ATP), % of control":38.9,"activity call":"inactive"}
{"gene knocked down":"Ttc39b (GeneID 69863)","siRNA no.":4,"GFP, % of control":60,"viability (ATP), % of control":66.6,"activity call":"inactive"}
{"gene knocked down":"Ttc39b (GeneID 69863)","siRNA no.":5,"GFP, % of control":92.8,"viability (ATP), % of control":80.8,"activity call":"inactive"}
{"gene knocked down":"Ttc39b (GeneID 69863)","siRNA no.":6,"GFP, % of control":99,"viability (ATP), % of control":74.8,"activity call":"inactive"}
{"gene knocked down":"Sod3 (GeneID 20657)","siRNA no.":1,"GFP, % of control":96,"viability (ATP), % of control":92.8,"activity call":"inactive"}
{"gene knocked down":"Sod3 (GeneID 20657)","siRNA no.":2,"GFP, % of control":57,"viability (ATP), % of control":57.2,"activity call":"inactive"}
{"gene knocked down":"Sod3 (GeneID 20657)","siRNA no.":3,"GFP, % of control":110,"viability (ATP), % of control":62.2,"activity call":"inactive"}
{"gene knocked down":"Slc22a2 (GeneID 20518)","siRNA no.":1,"GFP, % of control":66.5,"viability (ATP), % of control":74.3,"activity call":"inactive"}
{"gene knocked down":"Slc22a2 (GeneID 20518)","siRNA no.":2,"GFP, % of control":64.8,"viability (ATP), % of control":63.7,"activity call":"inactive"}
{"gene knocked down":"Slc22a2 (GeneID 20518)","siRNA no.":3,"GFP, % of control":85.2,"viability (ATP), % of control":85.2,"activity call":"inactive"}
{"gene knocked down":"Prss16 (GeneID 54373)","siRNA no.":1,"GFP, % of control":78.8,"viability (ATP), % of control":89.1,"activity call":"inactive"}
{"gene knocked down":"Prss16 (GeneID 54373)","siRNA no.":2,"GFP, % of control":129,"viability (ATP), % of control":87.7,"activity call":"active"}
{"gene knocked down":"Prss16 (GeneID 54373)","siRNA no.":3,"GFP, % of control":68.6,"viability (ATP), % of control":59.7,"activity call":"inactive"}
{"gene knocked down":"Cdh20 (GeneID 23836)","siRNA no.":1,"GFP, % of control":88,"viability (ATP), % of control":76,"activity call":"inactive"}
{"gene knocked down":"Cdh20 (GeneID 23836)","siRNA no.":2,"GFP, % of control":73.2,"viability (ATP), % of control":49.8,"activity call":"inactive"}
{"gene knocked down":"Cdh20 (GeneID 23836)","siRNA no.":3,"GFP, % of control":82.1,"viability (ATP), % of control":70.1,"activity call":"inactive"}
{"gene knocked down":"Kcnj3 (GeneID 16519)","siRNA no.":1,"GFP, % of control":148,"viability (ATP), % of control":71.7,"activity call":"active"}
{"gene knocked down":"Kcnj3 (GeneID 16519)","siRNA no.":2,"GFP, % of control":104,"viability (ATP), % of control":108,"activity call":"inactive"}
{"gene knocked down":"Kcnj3 (GeneID 16519)","siRNA no.":3,"GFP, % of control":68.7,"viability (ATP), % of control":107,"activity call":"inactive"}

Hits, of those listed so far:
{"gene knocked down":"Psmg2 (GeneID 107047)","siRNA no.":3,"GFP, % of control":141,"viability (ATP), % of control":111,"activity call":"active"}
{"gene knocked down":"Prss16 (GeneID 54373)","siRNA no.":2,"GFP, % of control":129,"viability (ATP), % of control":87.7,"activity call":"active"}
{"gene knocked down":"Kcnj3 (GeneID 16519)","siRNA no.":1,"GFP, % of control":148,"viability (ATP), % of control":71.7,"activity call":"active"}
